For some assays here: At least one read-out could not be matched to a standard name with certainty. For some assays here: At least one compound was matched to its structure with a doubt left.
Key:
[1] = test system: OXA β-lactamases; conditions: background statement, no data shown; cited from earlier work
[2] = Solubility of Compound 1 incubated for 24 h at 25° C. (Example 6); format: physicochemical; conditions: reference: 50 mM pH 4.5 acetate buffer and water
Protocol: The solubilization effect of sodium sulfobutylether-β-cyclodextrin (SBECD) and hydroxypropyl-β-cyclodextrin (HP-β-CD) on Compound 1 was investigated by taking the solubility in 50 mM pH 4.5 acetate buffer medium and water as a reference.
In the art, surfactants may also be used for solubilization. To further improve the solubility of Compound 1, a surfactant was added on the basis of SBECD to investigate the solubility.

For `N=C1NC[C@@H](c2nnc([C@@H]3CC4(CC4)[C@@H]4CN3C(=O)N4OS(=O)(=O)O)o2)N1` [Compound 1], which “inhibition of OXA β-lactamases in vitro” value [1] is on record?
Its value is “can effectively inhibit OXA β-lactamases in vitro”.

What about the “solubilization effect of SBECD and HP-β-CD on Compound 1” value [2] of the same molecule?
The value was “had a solubilization effect on Compound 1, with a better solubilization effect observed in SBECD”.
